Assay results: patent publication US12059499B2, “Liposome loading” (PLUMB PHARMACEUTICALS, INC., priority 2015, dated 2024)
Values joined by “and” are separate entries in the source; they are usually repeats but may differ in a detail not shown here. Equal entries are not always repeated. Where two headings read alike, the source gives them in different places.

What was measured:
[1] = Incorporation of base salts into liposomes by solvent (alcohol) dilution; details: for base content, solvent dilution: 2-propanol; for Pyridine Capture: lipid in 1-butanol, 60° C., 0.2M pyridinium sulfate
[2] = Base content of liposomes prepared by hydration of lyophilized lipid
[3] = Naltrexone loading into 2-propanol dilution liposomes using pyridinium salts; details: pyridinium salt 0.4 M with respect to pyridine, citrate pH 7.0, 48 hours
[4] = Loading of drug into liposomes containing a weak loading base (loading efficiency, spectrophotometric)
[5] = Direct capture of drugs into liposomes by solvent dilution; details: chloroquine diphosphate 200 mM in citrate pH 4.0, 1-propanol dilution, 58° C.
[6] = cited from earlier work; for incorporation efficiency: dehydration-rehydration vesicles
[7] = alcohol 2-propanol, 59 ° C., 0.2M sulfate salt, 250 + 250 microliters
[8] = alcohol Ethanol, 60 ° C., 0.2M sulfate salt, 250 + 250 microliters
[9] = alcohol Methanol, 59 ° C., 0.2M sulfate salt, 250 + 250 microliters
[10] = alcohol t-butanol, 62 ° C., 0.2M sulfate salt, 250 + 250 microliters
[11] = lipid in 1-propanol, sulfate salt, first volume 200, second volume 300 microliter
[12] = lipid in 1-propanol, sulfate salt, first volume 300, second volume 200 microliter
[13] = lipid in 1-propanol, sulfate salt, first volume 400, second volume 100 microliter
[14] = lipid in 1-propanol, sulfate salt, first volume 500, second volume 0 microliter
[15] = lipid in 1-propanol, sulfate salt, first volume 600, second volume 0 microliter
[16] = lipid in 1-propanol, sulfate salt, first volume 700, second volume 0 microliter
[17] = lipid in 1-propanol, sulfate salt, first volume 800, second volume 0 microliter
[18] = lipid in 2-butanol, sulfate salt, first volume 800, second volume 0 microliter
[19] = lipid in 2-butanol, sulfate salt, first volume 1000, second volume 0 microliter
[20] = lipid in 2-butanol, sulfate salt, first volume 1200, second volume 0 microliter
[21] = lipid in 2-propanol, 58° C., 0.2M sulfate salt, first volume 150, second volume 350 microliter
[22] = lipid in 2-propanol, 58° C., 0.2M sulfate salt, first volume 200, second volume 300 microliter
[23] = lipid in 2-propanol, 58° C., 0.2M sulfate salt, first volume 250, second volume 250 microliter
[24] = lipid in 2-propanol, 58° C., 0.2M sulfate salt, first volume 300, second volume 200 microliter
[25] = lipid in 2-propanol, 58° C., 0.2M sulfate salt, first volume 350, second volume 150 microliter
[26] = lipid in 2-propanol, 58° C., 0.2M sulfate salt, first volume 400, second volume 100 microliter
[27] = lipid in t-butanol, 62° C., 0.2M sulfate salt, first volume 200, second volume 300 microliter
[28] = lipid in t-butanol, 62° C., 0.2M sulfate salt, first volume 300, second volume 200 microliter
[29] = lipid in t-butanol, 62° C., 0.2M sulfate salt, first volume 400, second volume 100 microliter
[30] = lipid in t-butanol, 62° C., 0.2M sulfate salt, first volume 500, second volume 0 microliter
[31] = lipid in t-butanol, 62° C., 0.2M sulfate salt, first volume 600, second volume 0 microliter
[32] = lipid in t-butanol, 62° C., 0.2M sulfate salt, first volume 700, second volume 0 microliter
[33] = initial volume 300, second volume 200 microliter
[34] = initial volume 400, second volume 100 microliter
[35] = initial volume 600, second volume 0 microliter

## 2-methoxypyridinium sulfate [Example 2-MP]
[1]; [7]
  Capture: 0.283 mol/mol phospholipid
[1]; [8]
  Capture: 0.0015 mol/mol phospholipid
[1]; [9]
  Capture: 0.007 mol/mol phospholipid
[1]; [10]
  Capture: 0.161 mol/mol phospholipid
[1]; base salt concentration 0.25M
  base content, solvent dilution: 0.35 mol/mol
[1]; base salt concentration 0.5M
  base content, solvent dilution: 0.58 mol/mol
[1]; base salt concentration 1.0M
  base content, solvent dilution: 1.81 mol/mol
[1]; [11]
  Capture: 0.21 mol/mol
  Capture Efficiency: 7.64%
[1]; [12]
  Capture: 0.17 mol/mol
  Capture Efficiency: 6.33%
[1]; [13]
  Capture: 0.17 mol/mol
  Capture Efficiency: 6.24%
[1]; [14]
  Capture: 0.39 mol/mol
  Capture Efficiency: 13.76%
[1]; [15]
  Capture: 0.47 mol/mol
  Capture Efficiency: 13.65%
[1]; [16]
  Capture: 0.96 mol/mol
  Capture Efficiency: 24.11%
[1]; [17]
  Capture: 0.56 mol/mol
  Capture Efficiency: 12.33%
[1]; [18]
  Capture: 0.37 mol/mol
  Capture Efficiency: 9.31%
[1]; [19]
  Capture: 0.54 mol/mol
  Capture Efficiency: 10.77%
[1]; [20]
  Capture: 0.34 mol/mol
  Capture Efficiency: 5.64%
[1]; [21]
  Capture: 0.067 mol/mol
  Capture Efficiency: 2.68%
[1]; [22]
  Capture: 0.116 mol/mol
  Capture Efficiency: 4.64%
[1]; [23]
  Capture: 0.265 mol/mol
  Capture Efficiency: 10.6%
[1]; [24]
  Capture: 0.258 mol/mol
  Capture Efficiency: 10.32%
[1]; [25]
  Capture: 0.433 mol/mol
  Capture Efficiency: 17.32%
[1]; [26]
  Capture: 0.185 mol/mol
  Capture Efficiency: 7.4%
[1]; [27]
  Capture: 0.118 mol/mol
  Capture Efficiency: 4.72%
[1]; [28]
  Capture: 0.147 mol/mol
  Capture Efficiency: 5.88%
[1]; [29]
  Capture: 0.207 mol/mol
  Capture Efficiency: 8.28%
[1]; [30]
  Capture: 0.290 mol/mol
  Capture Efficiency: 11.6%
[1]; [31]
  Capture: 0.373 mol/mol
  Capture Efficiency: 12.43%
[1]; [32]
  Capture: 0.239 mol/mol
  Capture Efficiency: 6.83%
[2]; base salt concentration 0.25M
  base content, hydration of lyophilized lipid: 0.075 ± 0.002 mol/mol
[2]; base salt concentration 0.5M
  base content, hydration of lyophilized lipid: 0.158 ± 0.044 mol/mol
[2]; base salt concentration 1.0M
  base content, hydration of lyophilized lipid: 0.885 ± 0.612 mol/mol

## COc1ccccn1.COc1ccccn1.O=S(=O)(O)CCCS(=O)(=O)O [2-methoxypyridinium eprodisate]
[1]; base salt concentration 0.2M
  base content, solvent dilution: 0.32 mol/mol
[1]; base salt concentration 0.25M
  base content, solvent dilution: 0.49 mol/mol
[2]; base salt concentration 0.25M
  base content, hydration of lyophilized lipid: 0.079 mol/mol

## C1=Cc2cccc(OC[C@H]3CNCCO3)c2C1.O=S(=O)(O)c1ccccc1 [Benzenesulfonate]
[3]; Experiment 1
  percent naltrexone loaded: 87.92%
[3]; Experiment 2
  percent naltrexone loaded: 89.45%

## Cl.c1ccncc1 [Chloride, pyridinium chloride]
[3]; Experiment 1
  percent naltrexone loaded: 88.24%
[3]; Experiment 2
  percent naltrexone loaded: 89.74%

## O=[N+]([O-])O [Nitrate]
[3]; Experiment 1
  percent naltrexone loaded: 78.6%
[3]; Experiment 2
  percent naltrexone loaded: 75.0%

## CCN(CC)CCCC(C)Nc1ccnc2cc(Cl)ccc12 (centres unmarked) [chloroquine]
[4]; DPPC:cholesterol 2:1, 0.5M 2-methoxypyridinium eprodisate, sodium citrate pH 3.5, 24 μmol added
  percent of chloroquine loaded: 74.71%
[4]; pH 8.3
  percent of chloroquine loaded: 74.76% and 54.36% and 85.71%
[5]; [33]
  chloroquine capture: 0.373 mol/mol phospholipid
  chloroquine capture efficiency: 29.82%
[5]; [34]
  chloroquine capture: 0.496 mol/mol phospholipid
  chloroquine capture efficiency: 39.70%
[5]; initial volume 500, second volume 0 microliter
  chloroquine capture: 0.706 mol/mol phospholipid
[5]; [35]
  chloroquine capture: 0.610 mol/mol phospholipid
  chloroquine capture efficiency: 48.79%

## COc1cccc2c1C(=O)c1c(O)c3c(c(O)c1C2=O)C[C@@](O)(C(=O)CO)C[C@@H]3O[C@H]1C[C@H](N)[C@H](O)[C@H](C)O1 [doxorubicin]
[6]; ammonium sulfate loading, drug precipitates as insoluble sulfate
  loading efficiency: 99%

## O=C1CC[C@@]2(O)[C@H]3Cc4ccc(O)c5c4[C@@]2(CCN3CC2CC2)[C@H]1O5 [naltrexone, reference compound]
[4]; 0.2M nicotinamide sulfate, sodium citrate pH 7.0, 29.86 μmol added
  Percent of Naltrexone Loaded: 86.28%
[4]; 1.5 M pyridinium sulfate liposomes, tris-chloride adjusted to pH 8.1, 50 μmol naltrexone
  loading efficiency: 91.7%

## CN1CC[C@]23c4c5ccc(O)c4O[C@H]2C(=O)CC[C@@]3(O)[C@H]1C5 [oxymorphone]
[6]; ammonium sulfate gradient technique
  loading efficiency: approximately 35%
[6]; dipalmitoylphosphatidylcholine and cholesterol
  incorporation efficiency: 7%
[6]; egg phosphatidylcholine and cholesterol, passive aqueous capture
  incorporation efficiency: 50%

## c1ccncc1 [pyridine]
[1]; [7]
  Capture: 0.718 mol/mol phospholipid
[1]; [8]
  Capture: 0.238 mol/mol phospholipid
[1]; [9]
  Capture: 0.0595 mol/mol phospholipid
[1]; [10]
  Capture: 0.869 mol/mol phospholipid
[1]; volume 600 microliter
  Pyridine Capture: 0.748 mol/mol
[1]; volume 800 microliter
  Pyridine Capture: 0.914 mol/mol
[1]; volume 1000 microliter
  Pyridine Capture: 1.057 mol/mol
[1]; volume 1200 microliter
  Pyridine Capture: 1.613 mol/mol
[1]; volume 1400 microliter
  Pyridine Capture: 1.457 mol/mol
[1]; volume 1600 microliter
  Pyridine Capture: 2.093 mol/mol
[1]; volume 1800 microliter
  Pyridine Capture: 1.565 mol/mol
[1]; volume 2000 microliter
  Pyridine Capture: 1.629 mol/mol
[1]; lipid in 1-propanol, sulfate salt, first volume 100, second volume 400 microliter
  Capture: 1.71 mol/mol
[1]; [11]
  Capture: 1.41 mol/mol
[1]; [12]
  Capture: 1.16 mol/mol
[1]; [13]
  Capture: 1.05 mol/mol
[1]; [14]
  Capture: 1.72 mol/mol
[1]; [15]
  Capture: 1.93 mol/mol
[1]; [16]
  Capture: 1.59 mol/mol
[1]; lipid in 2-butanol, sulfate salt, first volume 200, second volume 400 microliter
  Capture: 0.43 mol/mol
[1]; lipid in 2-butanol, sulfate salt, first volume 300, second volume 300 microliter
  Capture: 0.49 mol/mol
[1]; lipid in 2-butanol, sulfate salt, first volume 400, second volume 200 microliter
  Capture: 0.52 mol/mol
[1]; lipid in 2-butanol, sulfate salt, first volume 500, second volume 100 microliter
  Capture: 0.39 mol/mol
[1]; lipid in 2-butanol, sulfate salt, first volume 600, second volume 0 microliter
  Capture: 0.94 mol/mol
[1]; lipid in 2-butanol, sulfate salt, first volume 700, second volume 0 microliter
  Capture: 1.44 mol/mol
[1]; [18]
  Capture: 2.26 mol/mol
[1]; lipid in 2-butanol, sulfate salt, first volume 900, second volume 0 microliter
  Capture: 2.69 mol/mol
[1]; [19]
  Capture: 3.06 mol/mol
[1]; lipid in 2-butanol, sulfate salt, first volume 1100, second volume 0 microliter
  Capture: 2.94 mol/mol
[1]; [20]
  Capture: 2.62 mol/mol
[1]; [21]
  Capture: 0.537 mol/mol
[1]; [22]
  Capture: 0.511 mol/mol
[1]; [23]
  Capture: 0.718 mol/mol
[1]; [25]
  Capture: 1.057 mol/mol
[1]; [26]
  Capture: 1.136 mol/mol
[1]; lipid in 2-propanol, 58° C., 0.2M sulfate salt, first volume 450, second volume 50 microliter
  Capture: 1.012 mol/mol
[1]; lipid in 2-propanol, 58° C., 0.2M sulfate salt, first volume 500, second volume 0 microliter
  Capture: 0.860 mol/mol
[1]; lipid in t-butanol, 62° C., 0.2M sulfate salt, first volume 250, second volume 250 microliter
  Capture: 0.87 mol/mol
[1]; [30]
  Capture: 0.93 mol/mol
[1]; [31]
  Capture: 0.95 mol/mol
[1]; [32]
  Capture: 0.84 mol/mol
[1]; lipid in t-butanol, 62° C., 0.2M sulfate salt, first volume 800, second volume 0 microliter
  Capture: 1.97 mol/mol
[1]; lipid in t-butanol, 62° C., 0.2M sulfate salt, first volume 1000, second volume 0 microliter
  Capture: 0.13 mol/mol
[1]; lipid in t-butanol, 62° C., 0.2M sulfate salt, first volume 1200, second volume 0 microliter
  Capture: 0.20 mol/mol
[1]; lipid in t-butanol, 62° C., 0.2M sulfate salt, first volume 1400, second volume 0 microliter
  Capture: 0.17 mol/mol

## O=S(=O)(O)CCCS(=O)(=O)O.c1ccncc1.c1ccncc1 [pyridinium eprodisate]
[1]; base salt concentration 0.2M
  base content, solvent dilution: 0.93 mol/mol
[3]; Experiment 1
  percent naltrexone loaded: 85.6%
[3]; Experiment 2
  percent naltrexone loaded: 84.2%

## Methanesulfonate
[3]; Experiment 1
  percent naltrexone loaded: 89.0%
[3]; Experiment 2
  percent naltrexone loaded: 89.3%
